Measurements reported in patent US10159726B2, “Peptides, combination of peptides and scaffolds for use in immunotherapeutic treatment of various cancers” (Immatics Biotechnologies GmbH, priority 2015, dated 2018).

How the values were obtained:
Design in all cases: species or system human
[1] = system: source genes of selected peptides; test: Expression profiling of source genes by in-house RNAseq, tumor vs normal tissues (target coverage); settings: for Target coverage, over-expression of source gene, AML: AML (N = 7); for Target coverage, over-expression of source gene, AML / Target coverage, over-expression of source gene, BRCA / Target coverage, over-expression of source gene, CLL / Target coverage, over-expression of source gene, CRC / Target coverage, over-expression of source gene, GB / Target coverage, over-expression of source gene, HCC / Target coverage, over-expression of source gene, OC / Target coverage, over-expression of source gene, OSCAR / Target coverage, over-expression of source gene, PC / Target coverage, over-expression of source gene, RCC / Target coverage, over-expression of source gene, SCLC / Target coverage, over-expression of source gene, pNSCLC: share of tumors with more than 1.5-fold higher expression than highest relevant normal tissue, in-house RNASeq; for Target coverage, over-expression of source gene, BRCA: BRCA (N = 10); for Target coverage, over-expression of source gene, CLL: CLL (N = 10); for Target coverage, over-expression of source gene, CRC: CRC (N = 20); for Target coverage, over-expression of source gene, GB: GB (N = 24); for Target coverage, over-expression of source gene, HCC: HCC (N = 15); for Target coverage, over-expression of source gene, OC: OC (N = 12); for Target coverage, over-expression of source gene, OSCAR: OSCAR (N = 11); for Target coverage, over-expression of source gene, PC: PC (N = 26); for Target coverage, over-expression of source gene, RCC: RCC (N = 10); for Target coverage, over-expression of source gene, SCLC: SCLC (N = 10); for Target coverage for source genes of selected peptides, GBC_CCC (N = 10): gallbladder adenocarcinoma and cholangiocarcinoma; for Target coverage for source genes of selected peptides, GBC_CCC (N = 10) / Target coverage for source genes of selected peptides, GC (N = 11) / Target coverage for source genes of selected peptides, HNSCC (N = 10) / Target coverage for source genes of selected peptides, MEL (N = 10) / Target coverage for source genes of selected peptides, NHL (N = 10) / Target coverage for source genes of selected peptides, PCA (n = 10) / Target coverage for source genes of selected peptides, UBC (N = 10) / Target coverage for source genes of selected peptides, UTC (N = 10): share of tumors with more than 1.5-fold higher expression than the highest-expressing relevant normal tissue, in-house RNAseq; for Target coverage for source genes of selected peptides, GC (N = 11): gastric cancer; for Target coverage for source genes of selected peptides, HNSCC (N = 10): head and neck small cell carcinoma; for Target coverage for source genes of selected peptides, MEL (N = 10): melanoma; for Target coverage for source genes of selected peptides, NHL (N = 10): non-Hodgkin lymphoma; for Target coverage, over-expression of source gene, pNSCLC: pNSCLC (N = 11); for Target coverage for source genes of selected peptides, PCA (n = 10): prostate cancer and benign prostate hyperplasia; for Target coverage for source genes of selected peptides, UBC (N = 10): urinary bladder cancer; for Target coverage for source genes of selected peptides, UTC (N = 10): uterine cancer
[2] = system: HLA-A*24 molecules of primary tumors; test: Identification and relative LC-MS quantitation of HLA-A*24 tumor-associated peptides presented on tissue samples (XPRESIDENT presentation profiles); settings: for ENTITIES: Table 9A: selected HLA-A*24-binding tumor-associated peptides, cancer entities on which the peptide was found presented
[3] = system: source genes of selected peptides; test: Target coverage of source genes in tumor entities based on TCGA Research Network data; settings: over-expressed = more than 2-fold above the highest 75% percentile of normal organs; for Target coverage, over-expression category of source gene, BLCA (N = 408): Bladder urothelial carcinoma; for Target coverage, over-expression category of source gene, CESC (N = 307): Cervical squamous cell carcinoma and endocervical adenocarcinoma; for Target coverage, over-expression category of source gene, DLBC (N = 48): Lymphoid neoplasm diffuse large B-cell lymphoma; for Target coverage, over-expression category of source gene, MESO (N = 87): Mesothelioma

| Substance | Target coverage, over-expression of source gene, AML [1] | Target coverage, over-expression of source gene, BRCA [1] | Target coverage, over-expression of source gene, CLL [1] | Target coverage, over-expression of source gene, CRC [1] | Target coverage, over-expression of source gene, GB [1] | Target coverage, over-expression of source gene, HCC [1] | Target coverage, over-expression of source gene, OC [1] | Target coverage, over-expression of source gene, OSCAR [1] | Target coverage, over-expression of source gene, PC [1] | Target coverage, over-expression of source gene, RCC [1] | Target coverage, over-expression of source gene, SCLC [1] | Target coverage for source genes of selected peptides, GBC_CCC (N = 10) [1] | Target coverage for source genes of selected peptides, GC (N = 11) [1] | Target coverage for source genes of selected peptides, HNSCC (N = 10) [1] | Target coverage for source genes of selected peptides, MEL (N = 10) [1] | Target coverage for source genes of selected peptides, NHL (N = 10) [1] | Target coverage, over-expression of source gene, pNSCLC [1] | Target coverage for source genes of selected peptides, PCA (n = 10) [1] | Target coverage for source genes of selected peptides, UBC (N = 10) [1] | Target coverage for source genes of selected peptides, UTC (N = 10) [1] | further results |
| --- | --- | --- | --- | --- | --- | --- | --- | --- | --- | --- | --- | --- | --- | --- | --- | --- | --- | --- | --- | --- | --- |
| 361: peptide found in PSMC1 (gene looked up) (TYADIGGLDNQI; listed as Homo sapiens) [compound 361] | II (20-49% = II) | I (<19% over-expression = I) | I (<19% over-expression = I) | I (<19% over-expression = I) | I (<19% over-expression = I) | I (<19% over-expression = I) | I (<19% over-expression = I) | I (<19% over-expression = I) | I (<19% over-expression = I) | I (<19% over-expression = I) | I (<19% over-expression = I) | I (<19% over-expression = I) | I (<19% over-expression = I) | I (<19% over-expression = I) | I (<19% over-expression = I) | I (<19% over-expression = I) | I (<19% over-expression = I) | I (<19% over-expression = I) | I (<19% over-expression = I) | I (<19% over-expression = I) | ENTITIES [2]: PCA, NSCLC, GC, GB, RCC; Target coverage, over-expression category of source gene, BLCA (N = 408) [3]: C (>=5% of tumors above the cutoff, but <20%); Target coverage, over-expression category of source gene, CESC (N = 307) [3]: C (>=5% of tumors above the cutoff, but <20%); Target coverage, over-expression category of source gene, DLBC (N = 48) [3]: C (>=5% of tumors above the cutoff, but <20%); Target coverage, over-expression category of source gene, MESO (N = 87) [3]: C (>=5% of tumors above the cutoff, but <20%) |
| 181: peptide found in PGR (gene looked up) (VYPPYLNYL; listed as Homo sapiens) [compound 181] | I (<19% over-expression = I) | II (20-49% = II) | I (<19% over-expression = I) | I (<19% over-expression = I) | I (<19% over-expression = I) | I (<19% over-expression = I) | I (<19% over-expression = I) | I (<19% over-expression = I) | I (<19% over-expression = I) | I (<19% over-expression = I) | I (<19% over-expression = I) |  |  |  |  |  | I (<19% over-expression = I) |  |  |  | Peptide Presentation on cancer entities ([2]; Table 9B: selected HLA-A*24 peptides, presentation on additional cancer entities): PCA; Target coverage, over-expression category of source gene, ACC (N = 79) ([3]; Adrenocortical carcinoma): C (>=5% of tumors above the cutoff, but <20%); Target coverage, over-expression category of source gene, KICH (N = 66) ([3]; Kidney chromophobe): B (>=20% of tumors above the cutoff, but <50%) |
| 345: peptide found in BUB1 (gene looked up) (EYNSDLHQFF; listed as Homo sapiens) [compound 345] | I (<19% over-expression = I) | I (<19% over-expression = I) | I (<19% over-expression = I) | I (<19% over-expression = I) | I (<19% over-expression = I) | I (<19% over-expression = I) | I (<19% over-expression = I) | I (<19% over-expression = I) | I (<19% over-expression = I) | I (<19% over-expression = I) | II (20-49% = II) | I (<19% over-expression = I) | I (<19% over-expression = I) | I (<19% over-expression = I) | I (<19% over-expression = I) | II (20-49% = II) | I (<19% over-expression = I) | I (<19% over-expression = I) | I (<19% over-expression = I) | I (<19% over-expression = I) | ENTITIES [2]: GB, NSCLC; Target coverage, over-expression category of source gene, BLCA (N = 408) [3]: B (>=20% of tumors above the cutoff, but <50%); Target coverage, over-expression category of source gene, CESC (N = 307) [3]: B (>=20% of tumors above the cutoff, but <50%); Target coverage, over-expression category of source gene, HNSC (N = 521) ([3]; Head and neck squamous cell carcinoma): B (>=20% of tumors above the cutoff, but <50%); Target coverage, over-expression category of source gene, DLBC (N = 48) [3]: A (>=50% of tumors above the cutoff); Target coverage, over-expression category of source gene, MESO (N = 87) [3]: C (>=5% of tumors above the cutoff, but <20%) |

For part of these data: For expression read-outs the peptide stands for its source gene, whose mRNA was measured; the gene is not named for every peptide.
